Measurements published in paper PMC2614481.
These are yes or no findings as the source states them, for the method shown. Binding seen in cells or lysates may run through a third protein. A yes stands for co-enrichment or nearness to the bait. Other partners may have been found. One block for each binder: values may come before it.

Assays:
[1] = biological target: T1, Sp_Alp13p (S. pombe), O13953; test: affinity purification with mass spectrometry; TAP of baits TAP-tagged at their genes from S. pombe extracts; eluates on 6-18% gels, Coomassie, bands and slices identified by MALDI peptide mapping and LC-MS/MS; common background removed, A-index cut-off 1.75; conditions: remark: other sources report otherwise
T1 chain: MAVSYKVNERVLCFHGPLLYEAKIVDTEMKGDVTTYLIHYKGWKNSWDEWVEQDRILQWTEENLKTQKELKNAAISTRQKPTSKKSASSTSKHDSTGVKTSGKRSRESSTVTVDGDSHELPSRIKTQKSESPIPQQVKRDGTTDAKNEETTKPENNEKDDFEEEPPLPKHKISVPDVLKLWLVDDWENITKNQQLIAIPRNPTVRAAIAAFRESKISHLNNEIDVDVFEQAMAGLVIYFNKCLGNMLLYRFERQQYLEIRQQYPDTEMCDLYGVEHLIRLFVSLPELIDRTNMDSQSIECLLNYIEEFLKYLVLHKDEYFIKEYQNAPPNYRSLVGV

Sc_Rpd3p (S. cerevisiae) = biological target: T2, Sc_Rpd3p (S. cerevisiae) (UniProt P32561); test: affinity purification with mass spectrometry; TAP of baits TAP-tagged at their genes from S. cerevisiae extracts; eluates on 6-18% gels, Coomassie, bands and slices identified by MALDI peptide mapping and LC-MS/MS; common background removed, A-index cut-off 1.75
T2 sequence: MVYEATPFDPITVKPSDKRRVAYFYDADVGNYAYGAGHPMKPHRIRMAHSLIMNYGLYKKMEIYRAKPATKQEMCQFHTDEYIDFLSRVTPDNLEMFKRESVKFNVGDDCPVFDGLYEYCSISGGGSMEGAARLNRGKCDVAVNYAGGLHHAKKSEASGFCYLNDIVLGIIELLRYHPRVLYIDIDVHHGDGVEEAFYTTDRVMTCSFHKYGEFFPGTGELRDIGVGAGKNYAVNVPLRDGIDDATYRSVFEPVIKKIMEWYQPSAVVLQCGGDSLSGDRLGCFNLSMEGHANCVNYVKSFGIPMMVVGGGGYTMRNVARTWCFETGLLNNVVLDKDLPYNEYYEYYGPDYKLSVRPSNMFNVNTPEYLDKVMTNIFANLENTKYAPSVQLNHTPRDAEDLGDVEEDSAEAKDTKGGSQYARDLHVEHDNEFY

Sc_Snt2p (S. cerevisiae) = biological target: T3, Sc_Snt2p (S. cerevisiae) (UniProt P53127); test: as above
T3 sequence: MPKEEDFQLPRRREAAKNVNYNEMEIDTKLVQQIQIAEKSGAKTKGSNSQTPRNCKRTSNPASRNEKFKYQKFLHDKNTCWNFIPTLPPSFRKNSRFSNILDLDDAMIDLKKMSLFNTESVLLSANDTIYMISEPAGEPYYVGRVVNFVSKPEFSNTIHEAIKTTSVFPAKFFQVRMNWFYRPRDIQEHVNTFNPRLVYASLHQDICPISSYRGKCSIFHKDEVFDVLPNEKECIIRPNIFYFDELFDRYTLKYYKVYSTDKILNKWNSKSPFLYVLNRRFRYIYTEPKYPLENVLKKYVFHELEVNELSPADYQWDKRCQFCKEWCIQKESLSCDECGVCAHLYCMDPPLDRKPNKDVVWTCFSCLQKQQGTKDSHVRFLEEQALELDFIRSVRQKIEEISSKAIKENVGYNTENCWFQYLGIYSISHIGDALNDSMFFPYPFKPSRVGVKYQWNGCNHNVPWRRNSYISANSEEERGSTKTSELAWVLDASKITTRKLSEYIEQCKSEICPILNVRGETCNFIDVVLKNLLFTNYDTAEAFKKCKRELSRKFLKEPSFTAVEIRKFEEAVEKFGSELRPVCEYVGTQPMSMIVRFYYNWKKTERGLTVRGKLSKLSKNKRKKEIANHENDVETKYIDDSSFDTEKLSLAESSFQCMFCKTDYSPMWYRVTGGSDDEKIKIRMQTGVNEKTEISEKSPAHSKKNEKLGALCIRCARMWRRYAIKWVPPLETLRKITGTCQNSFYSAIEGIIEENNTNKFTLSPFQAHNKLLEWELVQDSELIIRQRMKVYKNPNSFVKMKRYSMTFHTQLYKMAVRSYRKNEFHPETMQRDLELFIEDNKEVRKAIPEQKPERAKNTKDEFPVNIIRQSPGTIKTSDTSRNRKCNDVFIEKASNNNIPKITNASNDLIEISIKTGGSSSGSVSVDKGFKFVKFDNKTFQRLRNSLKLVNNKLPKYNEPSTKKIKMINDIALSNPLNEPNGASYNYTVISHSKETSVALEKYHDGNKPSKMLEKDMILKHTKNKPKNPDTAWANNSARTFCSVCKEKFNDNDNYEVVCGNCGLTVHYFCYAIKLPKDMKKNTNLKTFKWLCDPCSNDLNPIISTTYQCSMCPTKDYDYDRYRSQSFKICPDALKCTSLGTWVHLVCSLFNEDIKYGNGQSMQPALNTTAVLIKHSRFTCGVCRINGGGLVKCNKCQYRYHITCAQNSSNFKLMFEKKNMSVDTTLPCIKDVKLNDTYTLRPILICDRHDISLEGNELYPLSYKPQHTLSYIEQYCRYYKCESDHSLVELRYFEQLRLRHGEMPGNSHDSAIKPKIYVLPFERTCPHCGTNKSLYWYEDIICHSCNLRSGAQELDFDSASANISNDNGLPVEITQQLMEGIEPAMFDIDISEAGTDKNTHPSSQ

binding [1]: binds
B1: Sp_Prw1p, O14021 1-431 (protein)
chain: MAVSAVPHPSKQAQASEEGINQEKCINEEYKIWKKNSPFLYDLIITRALEWPCMSLQWYPEQQIFAEHGYTEQKMFLGVRADVGKYLLAVASIQLPYLNQTVPPTTMEGASAGDESSLRVNISNLYSHPESVCSAKLMPQDDSCVATVGNYHNDVLVFDKESFESYSSASESPLKPKYRLTKHTQPCTSVCWNFLSKGTLVSGSQDATLSCWDLNAYNESDSASVLKVHISSHEKQVSDVRFHYKHQDLLASVSYDQYLHVHDIRRPDASTKPARSVHAHSGPIHSVAFNPHNDFILATCSTDKTIALWDLRNLNQRLHTLEGHEDIVTKISFSPHEEPILASTSADRRTLVWDLSRIGEDQPAEEAQDGPPELLFMHGGHTSCTIDMDWCPNYNWTMATAAEDNILQIWTPSRSIWGNEQLEEDATAYLS

binding (Sc_Rpd3p (S. cerevisiae)): binds
binding (Sc_Snt2p (S. cerevisiae)): binds
B2: Sc_Ecm5p (protein, UniProt Q03214 1-1411)
chain: MSGHDSVTKISHILNEPVNEKVMVQNGFHESSKIADIELEIQERPSIKQWESPRSAVIPTSNHNFSPFLYTQFKSRGAAPFAPETIKSVDLVELPEGVPARVFHEKTGLFYQISPHSIPTFILAKKELPDPIKFYELVEDLGSVYGCVKLKIIPDADKFTQLNVDVDRLWFKARKQFFNSNEFQRTKIVDFYAKLYNFHNKIKKSTLTRIPSIDKRTLDLYRLRSCVKLRGGFNAVCEKKLWAQIGRELGYSGRIMSSLSTSLRSAYAKILLDFDIYEEEEQAARNNEKNEDMVESEIFRHSNSRSRDEEEPLHKKAKIHRDVFRAGSINHEFKRMRDIKHIKGFPTYFNSLTEFKLGYTQSTETTLPGYDFTFWENGMEIYDKSKYETKTSPVYNLRQYYEKSLAVFTAIVAKFGSSYPDLFAKHTTLPQKEFERLYFHLLSEHFIDFEIDTGLGLPCSMRSPGNNSSNEKFAIKNILDQWNLDNIPLNELSLLQHLDLDMANFTRTTYDIGMLFSCQGWSVSDHFLPSIDFNHLGSTKLVYSIAPKDMEKFEALIARGKSEWDTIQSRPRYSTSDDELKSFIETDFYKSFLDAEQSADYSNTGDNSKNSFPEDKIAGNTLHDGSQSDFIFEPNFILANGIKLYKTTQEQGSYIFKFPKAFTCSIGSGFYLSQNAKFAPSSWLRFSSEAAKWTSKMGFLPGLDVNQLLINALLNSNNPVLRKKCRDLISNYVVEEAENSKKLGELIGTVDVVYNKLNYISDISLESTGLSKIVVTHGALQRNLSLKEFVVLLEKPENGAHSICGIPIRDQSGNLNVCLHSYFDSASLGIALDGLDKPPTSYLLVHNEDFEKKWDVLMTSTFRNRTVPLNIIQYLISHTDSNTEFNRMLRSNFDDSLLLIEKCKKFIKTFVDVSCSVKDVDFGNGFNLRHLPLKFSDNMADNLESLYESVRKCSIEFSEKPTIIRLYHVSRQFPIDNRDIIDGNNLDLLKELYQKSLTIPLKVSYWTKLTRKICRLEWLSVYEHIFIERCDIKNEDPAKYSLPLLYSYFEFGLKYCDSEDIDKLGEVRKLILKYQDMMQKVRVFLKKDPPSKISLSDLEDVLLDIEEYRLPIQSSFFSELDYVIREIENAKKMNDVNILYNTDNIDKIDELIRKNDPKFVKFANQFNGSRLDKRPLASDNSGSVKAKQELKVFKLWNQHLDQIMQKNKFIEILPSIFRCLDLKSDKYIPLESCSKRQTKYCFCRRVEEGTAMVECEICKEWYHVDCISNGELVPPDDPNVLFVCSICTPPCMAVDNIEGVTFELDDLKRILVESLKLSLIPDPPILKNLFDVFAFALNFKNEMEKELFTNGYVNQLSSTHKIKYYLRKLKGSQCGFTNLTDPLRKHCQVKDAEAIKWLTDNGRIIITGIPN
